Data: patent US20220249525A1, “Fatty Acid Compounds for Prevention and Treatment of Neurodegenerative Disorders” (T OMEGA AS, priority 2019, published 2022)
Structures can show the parent of a compound that is named as a salt. Some results were stated once for a whole list of compounds, not compound by compound. For some assays here: For at least one compound, name, drawing or mass did not settle the structure.

Assays:
HuH-7 cells = assay: WST-1 cell viability assay in HuH-7 cells; format: cell-based; conditions: for WST-1 activity compared to no treatment: 2 days, 500 μM and 1000 μM; for WST-1 activity compared to untreated cells: 4 days, concentrations higher than 62.5 μM
Experimental: The fatty acids (FAs) TTA, tr-TTA, N-TTA, tr-N-TTA and (PA) were complexed with FBS following the same procedure, differing only in final stock concentration, due to variation in solubility. Approximately 0.07 g of FA was weighed in a 10 ml sterile serum tube (BD Vacutainer®, catalog no. 368430) and dissolved in sterile filtrated 0.1 M sodium hydroxide (NaOH) of a volume giving 25 mM FA, controls without FA were made, containing only NaOH and FBS. A syringe (Sterican®, catalog no. 4657577) was pierced through the rubber cap of the serum tube, and the tube was placed in an 80° C. water bath until the FAs were dissolved. Each FA-solution was then diluted in inactivated FBS to stock concentration 1 mM (N-TTA, tr-N-TTA), and 2 mM by adding the FA to a volume of 100% FBS after heating the FBS to 45° C. in a water bath. The transfer of FA to FBS had to be executed controlled and swiftly to avoid the formation of precipitates. If any precipitates in the solution were visible, the FA and a new volume of FBS were reheated, and the procedure performed again. Following successful complexation, the stock solutions were stored at −20° C. in 1 ml aliquots (CryoPure tube, Sarstedt AG & Co, Nümbrecht, Germany).
The WST-1 cell proliferation assay was performed using the kit from Roche (table 4.2.) and its accompanying procedure (version 16, February 2011) (134). The number of cells seeded to each well in the 96-well plates (Corning Inc., catalog no. 353072) varied depending on the treatment time and cell type (table 3.).
Cell suspension and medium were then transferred to each well in a volume of 100 μl in total. Subsequently, the plates were incubated for 24 hours to make the cells settle. The next day, 100 μl with FA complexed with FBS or diluted in DMSO was added to row A or B in the 96-well plate to give a defined concentration. […]
Following the FA-treatment, the cells were studied under a microscope to ensure that visual observations matched the measured absorbance and cell activity in the assay. […] Before the measurement of absorbance, the plates were placed on a shaker for 1 minute ensuring thoroughly mixing of the wells. The plates were then put straight into the spectrophotometer (SpectraMax Plus 384 Microplate Reader, Molecular Devices Corporation, San Jose, Calif., USA) to perform the measurements. […] The absorbance of the samples was measured at 450 nm, and the reference wavelength was set to 650 nm. For each well, the measured absorption at 650 nm was subtracted from the absorption at 450 nm. The measured absorbance for the treated cells was then compared to the controls (blank) containing only cells and growth medium.

[1] = test system: HeLaNRF1/c4 reporter cells; assay: Resazurin conversion assay in HeLaNRF1/c4 reporter cells; format: cell-based; conditions: tested dosages (30 μM and 60 μM)
Experimental: Non-small cell lung cancer cells, HCC827 (ATCC) were cultured in RPMI-1640 Glutamax medium (Sigma-Aldrich St. Louis, Mo., USA), under conventional culture conditions. Media was supplemented with 10% Fetal Bovine Serum (FBS), 1% glutamine and 1% streptomycin/penicillin (Sigma-Aldrich). HeLaNRF1/c4 reporter cells were cultured in Dulbecco's Modified Eagle's Medium (DMEM) supplemented with 10% FBS, 2 mM L-Glutamine, 100 u/ml penicillin/streptomycin (Sigma-Aldrich,). Incubation was done at 37° C. in 5% CO2.
Cell viability/proliferation was determined by the resazurin conversion assay. A total of 4000 cells were seeded in each of the 96-well plates in 100 μl of medium. After 3 hours of incubation, 100 μl of fresh medium with respective concentration of the desired compound or controls were added. Resazurin solution (Sigma-Aldrich) was added (10%, v/v in PBS) after 1 or 3 day treatment, followed by 3 hour incubation at 37° C. and 5% CO2. Resazurin fluorescence (excitation, 540 nm; emission, 590 nm) was measured and measurements were corrected for background signals. […] Relative viability was calculated from percent fluorescence relative to DMSO-treated control wells. […]

Compound	WST-1 activity compared to no treatment (HuH-7 cells)	WST-1 activity compared to untreated cells (HuH-7 cells)	reduction in resazurin conversion [1]
CCCCCCCCCCCCCCNCC(=O)O [N-TTA, N-tetradecylglycine]	20-75%	10-50%	–
CCCC(SCC)C(=O)O (centres unmarked) [2-(ethylthio) pentanoic acid, 2-(ethylthio)pentanoic acid]	–	–	30-40%
CC#CCCCCCCCCCCCNCC(=O)O [tr-N-TTA, Tetradec-12-yn-1-ylglycine hydrochloride]	–	10-50%	–
CCCCCCCCCCCCCCCC(=O)O [PA]	20-75%	–	–
